Assay [1] has as its target T1, ClpS (wild type), His6-ClpS or His10-ClpS (E. coli) (UniProt P0A8Q6).
T1 sequence: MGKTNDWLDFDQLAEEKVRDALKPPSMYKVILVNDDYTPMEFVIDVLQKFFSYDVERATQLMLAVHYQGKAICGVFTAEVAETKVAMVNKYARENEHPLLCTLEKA
The experiment in a line: pull-down.

By UniProt entry, the sequences of proteins in these tests, tags left out. Where a name states a change or a piece, a line headed by the entry shows the natural chain unless it says otherwise.
UniProt P42588, whole entry, stated change not applied: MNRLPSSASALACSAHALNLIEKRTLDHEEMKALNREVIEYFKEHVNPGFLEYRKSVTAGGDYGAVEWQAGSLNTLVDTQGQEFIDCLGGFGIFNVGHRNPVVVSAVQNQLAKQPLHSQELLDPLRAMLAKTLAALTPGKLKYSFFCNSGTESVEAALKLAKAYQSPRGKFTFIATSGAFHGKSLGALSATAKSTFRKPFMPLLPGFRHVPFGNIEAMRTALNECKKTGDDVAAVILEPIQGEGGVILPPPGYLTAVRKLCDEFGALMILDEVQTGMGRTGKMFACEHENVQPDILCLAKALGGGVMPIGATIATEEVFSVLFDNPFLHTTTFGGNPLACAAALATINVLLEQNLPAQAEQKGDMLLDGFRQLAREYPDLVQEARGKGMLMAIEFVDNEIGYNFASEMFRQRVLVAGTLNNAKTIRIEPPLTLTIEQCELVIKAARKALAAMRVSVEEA

In assay [2] the target is T1, ClpS (wild type), His6-ClpS or His10-ClpS (E. coli). The experiment in a line: pull-down. This is another data set of the same source.

The source of these data is doi:10.1101/2021.07.26.453911.

Like-named read-outs stand apart in the source and are kept apart here. Results are given in words; binding and its absence hold for the method and conditions named. In cells and extracts the contact can be indirect. Some results given as binding are weak or reduced against the parent protein; the word gives no strength. Tags and fused reporters may be left off the sequences shown.

With “PATase of Δaat cells (not modified by LFTR) (from UniProt P42588 1-459)”, the binding result in assay [1] is on record as “no binding”.

B1: LK16-AccD (processed AccD with Leu attached by LFTR to Lys16), recovered from ΔclpA cells (protein, UniProt P0A9Q5 16-304)
chain: LKASIPEGVWTKCDSCGQVLYRAELERNLEVCPKCDHHMRMTARNRLHSLLDEGSLVELGSELEPKDVLKFRDSKKYKDRLASAQKETGEKDALVVMKGTLYGMPVVAAAFEFAFMGGSMGSVVGARFVRAVEQALEDNCPLICFSASGGARMQEALMSLMQMAKTSAALAKMQERGLPYISVLTDPTMGGVSASFAMLGDLNIAEPKALIGFAGPRVIEQTVREKLPPGFQRSEFLIEKGAIDMIVRRPEMRLKLASILAKLMNLPAPNPEAPREGVVVPPVPDQEPEA
With B1, the binding entry in assay [2] is recorded as “binds”.

B2: SufD of Δaat cells (not modified by LFTR) (protein, UniProt P77689 1-423)
chain: MAGLPNSSNALQQWHHLFEAEGTKRSPQAQQHLQQLLRTGLPTRKHENWKYTPLEGLINSQFVSIAGEISPQQRDALALTLDSVRLVFVDGRYVPALSDATEGSGYEVSINDDRQGLPDAIQAEVFLHLTESLAQSVTHIAVKRGQRPAKPLLLMHITQGVAGEEVNTAHYRHHLDLAEGAEATVIEHFVSLNDARHFTGARFTINVAANAHLQHIKLAFENPLSHHFAHNDLLLAEDATAFSHSFLLGGAVLRHNTSTQLNGENSTLRINSLAMPVKNEVCDTRTWLEHNKGFCNSRQLHKTIVSDKGRAVFNGLINVAQHAIKTDGQMTNNNLLMGKLAEVDTKPQLEIYADDVKCSHGATVGRIDDEQIFYLRSRGINQQDAQQMIIYAFAAELTEALRDEGLKQQVLARIGQRLPGGAR
With B2, in assay [2], the binding entry is given as “no binding”.

B3: AccD of Δaat cells (not modified by LFTR) (protein, UniProt P0A9Q5 1-304)
chain: MSWIERIKSNITPTRKASIPEGVWTKCDSCGQVLYRAELERNLEVCPKCDHHMRMTARNRLHSLLDEGSLVELGSELEPKDVLKFRDSKKYKDRLASAQKETGEKDALVVMKGTLYGMPVVAAAFEFAFMGGSMGSVVGARFVRAVEQALEDNCPLICFSASGGARMQEALMSLMQMAKTSAALAKMQERGLPYISVLTDPTMGGVSASFAMLGDLNIAEPKALIGFAGPRVIEQTVREKLPPGFQRSEFLIEKGAIDMIVRRPEMRLKLASILAKLMNLPAPNPEAPREGVVVPPVPDQEPEA
With B3, the binding entry in assay [2] is “no binding”.

B4: LT2-AldB (AldB with Leu attached by LFTR to Thr2), recovered from ΔclpA cells (protein, UniProt P37685 2-512)
chain: LTNNPPSAQIKPGEYGFPLKLKARYDNFIGGEWVAPADGEYYQNLTPVTGQLLCEVASSGKRDIDLALDAAHKVKDKWAHTSVQDRAAILFKIADRMEQNLELLATAETWDNGKPIRETSAADVPLAIDHFRYFASCIRAQEGGISEVDSETVAYHFHEPLGVVGQIIPWNFPLLMASWKMAPALAAGNCVVLKPARLTPLSVLLLMEIVGDLLPPGVVNVVNGAGGVIGEYLATSKRIAKVAFTGSTEVGQQIMQYATQNIIPVTLELGGKSPNIFFADVMDEEDAFFDKALEGFALFAFNQGEVCTCPSRALVQESIYERFMERAIRRVESIRSGNPLDSVTQMGAQVSHGQLETILNYIDIGKKEGADVLTGGRRKLLEGELKDGYYLEPTILFGQNNMRVFQEEIFGPVLAVTTFKTMEEALELANDTQYGLGAGVWSRNGNLAYKMGRGIQAGRVWTNCYHAYPAHAAFGGYKQSGIGRETHKMMLEHYQQTKCLLVSYSDKPLGLF
Consider B4, for which, in assay [2], the binding result was “binds”.

B5: AldB of Δaat cells (not modified by LFTR) (protein, UniProt P37685 1-512)
chain: MTNNPPSAQIKPGEYGFPLKLKARYDNFIGGEWVAPADGEYYQNLTPVTGQLLCEVASSGKRDIDLALDAAHKVKDKWAHTSVQDRAAILFKIADRMEQNLELLATAETWDNGKPIRETSAADVPLAIDHFRYFASCIRAQEGGISEVDSETVAYHFHEPLGVVGQIIPWNFPLLMASWKMAPALAAGNCVVLKPARLTPLSVLLLMEIVGDLLPPGVVNVVNGAGGVIGEYLATSKRIAKVAFTGSTEVGQQIMQYATQNIIPVTLELGGKSPNIFFADVMDEEDAFFDKALEGFALFAFNQGEVCTCPSRALVQESIYERFMERAIRRVESIRSGNPLDSVTQMGAQVSHGQLETILNYIDIGKKEGADVLTGGRRKLLEGELKDGYYLEPTILFGQNNMRVFQEEIFGPVLAVTTFKTMEEALELANDTQYGLGAGVWSRNGNLAYKMGRGIQAGRVWTNCYHAYPAHAAFGGYKQSGIGRETHKMMLEHYQQTKCLLVSYSDKPLGLF
Turning to B5, in assay [2], the binding entry is recorded as “no binding”.
